Taken from: PubChem BioAssay AID504786 (Drosophila RNAi Screening Center, 2011)
In all, the deposit lists about 21,000 reagents; this is an unselected part of those that have a named target and a result. 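Primary screen; positive scores mean lost reporter signal, so the sign may be inverted from the usual convention.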 Further read-outs or replicates are left out here.

Purpose: 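Positive regulators of HIF-driven reporter output in Drosophila cells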 (primary screen)
Cell system: Drosophila S2 cells with a stable HIF luciferase reporter
Reagent: long dsRNA against Drosophila genes, about 0.2 µg dsRNA per well of a 384-well plate
Duration: three days of knock-down, then 20 h of DFO before reading
Challenge: desferrioxamine (DFO) at 100 µM, an iron chelator that mimics hypoxia, for 20 h
Measured: 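HIF reporter luminescence in cells given 100 µM DFO for 20 h, using the mouse ldh-a hypoxia-response element, scored as per-plate z-scores; higher means greater loss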
Reading the numbers: z-score: higher = stronger loss of HIF reporter signal

Depletion of Ilp5 [DRSC08998] came out at: z-score, replicate 1 = -0.2. Against inc [DRSC17954], the entry reads z-score, replicate 1 = -0.1. Depletion of inc [DRSC18512] came out at: z-score, replicate 1 = -0.3. For CG6409 [DRSC10630] the deposit lists z-score, replicate 1 = -0.2. After knock-down of bumpel [DRSC16100] the results were z-score, replicate 1 = -0.3. CG16972 [DRSC02550] gave z-score, replicate 1 = 0.

CG30470 (retired record) [DRSC05553] scored z-score, replicate 1 = -0.1. Depletion of CG30470 (retired record) [DRSC06260] came out at: z-score, replicate 1 = -0.1. Knock-down of CG30470 (retired record) [DRSC06261] resulted in: z-score, replicate 1 = -0.4. Against CG30470 (retired record) [DRSC06777] the deposit lists z-score, replicate 1 = -0.3. Atpalpha [DRSC14119] showed z-score, replicate 1 = -0.3. With knock-down of UbcE2H [DRSC18221], the screen gave z-score, replicate 1 = -0.3.

Knock-down of CG10973 [DRSC09813] came out at: z-score, replicate 1 = -0.2. Against vn [DRSC11408] the deposit lists z-score, replicate 1 = 0.2. Depletion of CG13564 [DRSC04201] gave: z-score, replicate 1 = -0.3. After knock-down of CG10993 [DRSC19362], the screen gave z-score, replicate 1 = -0.3. Depletion of CG34115 [DRSC03840] came out at: z-score, replicate 1 = 1.5. For Ubr3 [DRSC17987], the values are z-score, replicate 1 = -0.1.

Ubr3 [DRSC17997] scored z-score, replicate 1 = -0.1. For ssp [DRSC10252] the deposit lists z-score, replicate 1 = -0.1. Silencing of Mink [DRSC14291] came out at: z-score, replicate 1 = -0.2. With knock-down of Xbp1 [DRSC04553], the screen gave z-score, replicate 1 = -0.8. Nca [DRSC11233] gave z-score, replicate 1 = -0.3. Knock-down of Aptx [DRSC15768] gave: z-score, replicate 1 = -0.4.

Records above whose gene name starts with C or c:
CG6409 [DRSC10630] → z-score, replicate 1: -0.2
CG16972 [DRSC02550] → z-score, replicate 1: 0
CG30470 (retired record) [DRSC05553] → z-score, replicate 1: -0.1
CG30470 (retired record) [DRSC06260] → z-score, replicate 1: -0.1
CG30470 (retired record) [DRSC06261] → z-score, replicate 1: -0.4
CG30470 (retired record) [DRSC06777] → z-score, replicate 1: -0.3
CG10973 [DRSC09813] → z-score, replicate 1: -0.2
CG13564 [DRSC04201] → z-score, replicate 1: -0.3
CG10993 [DRSC19362] → z-score, replicate 1: -0.3
CG34115 [DRSC03840] → z-score, replicate 1: 1.5

The results go on.
After knock-down of tko [DRSC18844] the results were z-score, replicate 1 = 1.2. dpr20 [DRSC08265] showed z-score, replicate 1 = -0.3. After knock-down of png [DRSC18582] the results were z-score, replicate 1 = -0.3. Knock-down of CG4269 [DRSC04457] came out at: z-score, replicate 1 = 1.7. hppy [DRSC07014] gave z-score, replicate 1 = -0.3. Silencing of hppy [DRSC07015] resulted in: z-score, replicate 1 = -0.3.

For hppy [DRSC07016] the deposit lists z-score, replicate 1 = -0.2. Silencing of RhoGAP16F [DRSC20025] resulted in: z-score, replicate 1 = -0.3. After knock-down of sesB [DRSC20371] the results were z-score, replicate 1 = 1. Depletion of CG13840 [DRSC14690] gave: z-score, replicate 1 = -0.8. With knock-down of CG34283 [DRSC13313], the screen gave z-score, replicate 1 = -0.4. Arp3 [DRSC09669] gave z-score, replicate 1 = 0.9.

For nAChRalpha6 [DRSC01096] the deposit lists z-score, replicate 1 = -0.2. With knock-down of nAChRalpha6 [DRSC02738], the screen gave z-score, replicate 1 = -0.4. eIF2Balpha [DRSC16332] gave z-score, replicate 1 = -0.4. With knock-down of knk [DRSC15993] the results were z-score, replicate 1 = -0.3.
